Here are results for 2 molecules from article doi:10.1101/2022.01.21.475743.

Chains of the proteins cited; added tags and fusions are not shown. Lines headed by an entry give the natural chain unless they say otherwise; changes in a name come on top.
UniProt Q9HAW4: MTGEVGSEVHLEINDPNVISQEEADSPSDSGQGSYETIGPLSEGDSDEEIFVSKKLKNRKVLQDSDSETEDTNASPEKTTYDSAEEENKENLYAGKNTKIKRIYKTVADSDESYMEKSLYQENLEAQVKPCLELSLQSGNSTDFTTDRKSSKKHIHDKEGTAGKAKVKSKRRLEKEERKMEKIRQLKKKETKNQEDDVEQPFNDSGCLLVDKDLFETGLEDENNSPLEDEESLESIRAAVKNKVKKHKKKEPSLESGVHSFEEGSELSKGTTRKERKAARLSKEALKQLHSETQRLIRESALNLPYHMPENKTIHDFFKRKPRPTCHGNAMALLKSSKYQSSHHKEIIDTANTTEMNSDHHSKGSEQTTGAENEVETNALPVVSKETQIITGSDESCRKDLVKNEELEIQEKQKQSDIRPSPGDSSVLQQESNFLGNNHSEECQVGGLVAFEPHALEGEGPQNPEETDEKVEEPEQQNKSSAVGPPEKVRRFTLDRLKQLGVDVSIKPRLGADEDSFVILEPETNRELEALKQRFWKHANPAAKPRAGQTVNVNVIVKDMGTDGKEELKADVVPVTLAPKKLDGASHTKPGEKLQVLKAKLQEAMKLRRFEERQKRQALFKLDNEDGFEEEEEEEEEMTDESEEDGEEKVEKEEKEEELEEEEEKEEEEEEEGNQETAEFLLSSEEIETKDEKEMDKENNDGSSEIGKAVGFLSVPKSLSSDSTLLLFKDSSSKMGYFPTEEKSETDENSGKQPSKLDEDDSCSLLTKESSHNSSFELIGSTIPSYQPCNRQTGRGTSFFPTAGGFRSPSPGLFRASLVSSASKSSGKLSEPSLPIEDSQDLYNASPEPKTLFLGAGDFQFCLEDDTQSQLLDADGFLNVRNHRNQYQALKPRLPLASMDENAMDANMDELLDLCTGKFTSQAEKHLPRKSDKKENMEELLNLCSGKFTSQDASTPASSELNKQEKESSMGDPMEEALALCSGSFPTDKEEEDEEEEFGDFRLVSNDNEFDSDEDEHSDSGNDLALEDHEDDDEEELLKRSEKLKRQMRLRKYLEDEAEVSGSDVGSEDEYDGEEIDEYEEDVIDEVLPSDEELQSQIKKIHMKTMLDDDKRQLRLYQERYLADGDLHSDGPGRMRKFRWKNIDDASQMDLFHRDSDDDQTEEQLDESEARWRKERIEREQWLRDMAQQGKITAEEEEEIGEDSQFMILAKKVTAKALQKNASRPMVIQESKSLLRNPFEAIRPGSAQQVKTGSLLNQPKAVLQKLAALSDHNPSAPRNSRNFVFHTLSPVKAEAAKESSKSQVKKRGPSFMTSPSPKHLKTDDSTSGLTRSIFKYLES

These are yes or no findings as the source states them, for the method shown. For part of these data: Binding calls can cover weak binding; strength is not graded here. For part of these data: Binding seen in cells or lysates may run through a third protein.

For assay [1], the target named is Claspin ST27/A mutant, Flag-tagged (UniProt Q9HAW4). As to the kind of experiment: pull-down.
Assay [2] deals with N-terminal polypeptide of Claspin (#2), C-terminally Flag-tagged. Nature of the assay: pull-down.
Assay [3] deals with N-terminal polypeptide of Claspin (#26), C-terminally Flag-tagged. As to the kind of experiment: pull-down.
For assay [4], the target named is His-tagged 897-1209aa Claspin polypeptide, ST/A mutant (UniProt Q9HAW4). As to the kind of experiment: pull-down.
Assay [5] deals with N-terminal polypeptide of Claspin (#2), C-terminally Flag-tagged. Nature of the assay: co-IP.
In assay [6] the target is N-terminal polypeptide of Claspin (#26), C-terminally Flag-tagged. As to the kind of experiment: co-IP.

B1: purified PDK1 (Carna Bioscience) (enzyme, UniProt O15530 1-556)
chain: MARTTSQLYDAVPIQSSVVLCSCPSPSMVRTQTESSTPPGIPGGSRQGPAMDGTAAEPRPGAGSLQHAQPPPQPRKKRPEDFKFGKILGEGSFSTVVLARELATSREYAIKILEKRHIIKENKVPYVTRERDVMSRLDHPFFVKLYFTFQDDEKLYFGLSYAKNGELLKYIRKIGSFDETCTRFYTAEIVSALEYLHGKGIIHRDLKPENILLNEDMHIQITDFGTAKVLSPESKQARANSFVGTAQYVSPELLTEKSACKSSDLWALGCIIYQLVAGLPPFRAGNEYLIFQKIIKLEYDFPEKFFPKARDLVEKLLVLDATKRLGCEEMEGYGPLKAHPFFESVTWENLHQQTPPKLTAYLPAMSEDDEDCYGNYDNLLSQFGCMQVSSSSSSHSLSASDTGLPQRSGSNIEQYIHDLDSNSFELDLQFSEDEKRLLLEKQAGGNPWHQFVENNLILKMGPVDKRKGLFARRRQLLLTEGPHLYYVDPVNKVLKGEIPWSQELRPEAKNFKTFFVHTPNRTYYLMDPSGNAHKWCRKIQEVWRQRYQSHPDAAVQ
B1: the binding result in assay [1] is reported as “binds”; in assay [2], “binds weakly”; in assay [3] it was “binds weakly”; in assay [4] it was “binds weakly”.

B2: PDK1 (endogenous, 293T) (protein, UniProt O15530 1-556)
chain: B1 chain
modifications: phosphoserine at 241 (the form told to interact with Claspin in Fig. 5A)
B2: the binding entry in assay [5] and in assay [6] was “no binding” throughout.
